According to PubChem BioAssay AID590 (National Center for Advancing Translational Sciences (NCATS), 2007):
The campaign covered roughly 59,000 compounds. About 6,500 (11%) were called active. Inconclusive means that the source gave no clear call. Such entries were picked first, then a sample of the others. No stated cut-off is given here; in the data, active means max dye-equivalent concentration above about 10 nM; inconclusive means mostly about 1.1 nM to 9.6 nM; inactive means weaker than that.

Test: qHTS Assay for Spectroscopic Profiling in A350 Spectral Region
Conditions: Compound autofluorescence, 340/450 nm, Alexa 350 dye-equivalents; stronger effect = higher value
For `CNC(=O)CSc1nc2c(c(=O)n(C)c(=O)n2C)n1Cc1ccc(C)cc1`, the max dye-equivalent concentration was inconclusive: 1.5 nM.
In the case of `COc1ccc(/C(O)=C2\C(=O)C(=O)N(c3cc(C)on3)C2c2ccc(OC)c(OC)c2)cc1OC` (configuration not stated), the max dye-equivalent concentration was inconclusive: 1.1 nM.
For `O=S1(=O)N=CN(Cc2cccc(F)c2)c2ccccc21`, the max dye-equivalent concentration was inconclusive: 1.7 nM.
For `CCC1(C)Nc2ccccc2C(=O)N1O` (configuration not stated), the max dye-equivalent concentration was active: 19 nM.
In the case of `COc1ccc(CN2CCN(c3ccccn3)CC2)cc1OCc1ccccc1`, the max dye-equivalent concentration was inconclusive: 4.5 nM.
With `CC(C)(C)c1ccc(C(=O)/C=C2\NC(=O)CS2)cc1` the max dye-equivalent concentration was inconclusive: 4.6 nM.
For `CCOC(=O)C1=C[C@]2(CC)CCCN3CCc4c(n1c1ccccc41)[C@@H]32`, the max dye-equivalent concentration was inconclusive: 2.2 nM.
For `CCN(CC)S(=O)(=O)c1cccc(C(=O)Oc2cccnc2)c1`, the max dye-equivalent concentration was inconclusive: 1.6 nM.
For `COc1ccc(-c2nc3cnc(N(C)C)nc3n(Cc3cccs3)c2=O)cc1`, the max dye-equivalent concentration was inconclusive: 2.9 nM.
For `c1ccc(CNc2nc3ccccc3n2CCN2CCOCC2)nc1`, the max dye-equivalent concentration was inconclusive: 1.9 nM.
For `CCOC(=O)c1sc(C)c(C(=O)NCCCN2CCOCC2)c1N`, the max dye-equivalent concentration was inconclusive: 6.1 nM.
For `CN1CCN(CC(=O)Nc2nc(-c3ccccc3)cs2)CC1`, the max dye-equivalent concentration was inconclusive: 4 nM.
In the case of `CCOC(=O)N1CCN(S(=O)(=O)c2ccc3c(c2)OCC(=O)N3)CC1`, the max dye-equivalent concentration was inconclusive: 2.9 nM.
With `N#Cc1cc2cc3c(cc2nc1N1CCCCC1)OCCO3` the max dye-equivalent concentration was active: 170 nM.
For `c1coc(C2Nc3cccc4cccc(c34)N2)c1`, the max dye-equivalent concentration was inconclusive: 3.7 nM.
For `COc1ccc(C)cc1S(=O)(=O)Nc1cccc(SC)c1`, the max dye-equivalent concentration was inconclusive: 1.9 nM.
With `CCOC(=O)Cc1c(C)c2c(C)nn(-c3ccccc3)c2oc1=O` the max dye-equivalent concentration was inconclusive: 2.7 nM.
In the case of `Cn1c(=O)n(CC(=O)N2CCOCC2)c2ccccc21`, the max dye-equivalent concentration was inconclusive: 1.6 nM.
For `COc1cc(C(=O)N(Cc2ccccn2)CC2CCCO2)cc(OC)c1OC` (configuration not stated), the max dye-equivalent concentration was “inactive”.
With `CCCCc1ccc(NC(=O)c2c(C)noc2C)cc1` the max dye-equivalent concentration was inconclusive: 1.5 nM.
In the case of `CSc1nnc2c3c4c(sc3nc(-n3nc(C)cc3C)n12)COC(C)(C)C4`, the max dye-equivalent concentration was active: 86 nM.
With `Cc1nnc(NC(=O)CCC(=O)N2CCN(CCc3ccccc3)CC2)s1` the max dye-equivalent concentration was inconclusive: 1.5 nM.
With `CCCCn1nnc(NC(=O)COc2cc(C)ccc2C(C)C)n1` the max dye-equivalent concentration was inconclusive: 1.3 nM.
For `COc1cc(CN(C)CC(=O)c2[nH]c(C)c(C(C)=O)c2C)ccc1OC(F)F`, the max dye-equivalent concentration was “inactive”.
In the case of `NC(=O)COc1c(-c2ccccc2)oc2ccccc2c1=O`, the max dye-equivalent concentration was inconclusive: 8.4 nM.
For `COC(=O)c1[nH]c(C)c(/C(O)=C2\C(=O)C(=O)N(CCN(C)C)C2c2cccc(OC)c2OC)c1C` (configuration not stated), the max dye-equivalent concentration was inconclusive: 5.7 nM.
With `CNc1ccnc(-c2c(C)noc2C)n1` the max dye-equivalent concentration was “inactive”.
For `N#Cc1cccc(NC(=O)CCC2CCCC2)c1`, the max dye-equivalent concentration was “inactive”.
With `O=C1CC(N2CCN(c3ccccc3F)CC2)C(=O)N1c1ccc2c(c1)OCCO2` (configuration not stated) the max dye-equivalent concentration was inconclusive: 1.5 nM.
For `CCN(Cc1ccccc1)C(=O)Cn1c(=O)n(CC(=O)NCc2ccco2)c(=O)c2sccc21`, the max dye-equivalent concentration was “inactive”.
With `CCc1nc2c3cnn(-c4cc(Cl)ccc4C)c3ncn2n1` the max dye-equivalent concentration was inconclusive: 2.2 nM.
For `O=C(c1cc2nc(-c3ccco3)cc(C(F)(F)F)n2n1)N1CCCc2ccccc21`, the max dye-equivalent concentration was inconclusive: 5 nM.
In the case of `COCCN1Cc2cccc(C(=O)Nc3ccc(S(=O)(=O)N4CCCCCC4)cc3)c2C1=O`, the max dye-equivalent concentration was inconclusive: 2 nM.
In the case of `COC(=O)Nc1ccc2c(c1)N(C(=O)CCN1CCN3CCCC3C1)c1ccccc1CC2` (configuration not stated), the max dye-equivalent concentration was inconclusive: 2.8 nM.
With `COc1cccc(C2/C(=C(\O)c3ccc4c(c3)OCCO4)C(=O)C(=O)N2CCCN(C)C)c1OC` (configuration not stated) the max dye-equivalent concentration was inconclusive: 1.3 nM.
For `CCOC(=O)CSC1=C(C#N)C(C)C2=C(CCCC2=O)N1` (configuration not stated), the max dye-equivalent concentration was active: 54 nM.
For `O=C(Nc1cccnc1)c1ccc(NC(=O)c2ccco2)cc1`, the max dye-equivalent concentration was “inactive”.
With `Cc1noc(/C=C/c2ccco2)c1S(=O)(=O)N1CCC(C(=O)NCc2ccco2)CC1` the max dye-equivalent concentration was inconclusive: 1.5 nM.
For `COC(=O)CC[C@@H](C(=O)O)N1C(=O)c2ccccc2C1=O`, the max dye-equivalent concentration was inconclusive: 6.3 nM.
For `CC(C(=O)Nc1ccccc1-c1ccccc1)N1CCN(C(=O)c2ccco2)CC1` (configuration not stated), the max dye-equivalent concentration was “inactive”.
For `CCCCS(=O)(=O)NC1=NCN(CCO)CN1`, the max dye-equivalent concentration was “inactive”.
For `CCOc1ccc(C2C(C(=O)O)c3ccccc3C(=O)N2CCN2CCOCC2)cc1` (configuration not stated), the max dye-equivalent concentration was inconclusive: 3.9 nM.
In the case of `c1ccc2c(c1)C(=NCC1CCCO1)NC2=NCC1CCCO1` (configuration not stated), the max dye-equivalent concentration was active: 37 nM.
With `CCN(CC)C(=O)N1c2ccccc2CC(N(CC)CC)c2ccccc21` (configuration not stated) the max dye-equivalent concentration was inconclusive: 3.1 nM.
For `Cc1nc2ncnn2c(C)c1CCC(=O)NC(C)CCc1ccco1` (configuration not stated), the max dye-equivalent concentration was inconclusive: 4.8 nM.
For `O=C(CCCSc1nnc(-c2cccs2)n1CC1CCCO1)c1ccccc1` (configuration not stated), the max dye-equivalent concentration was inconclusive: 1.2 nM.
For `CN1CCCCc2c1nc1ccccc1c2N` (tested in a mixture with another compound), the max dye-equivalent concentration was inconclusive: 4.6 nM.
For `O=C(Nc1cccc(F)c1)N1CC[C@@]2(CCCN(S(=O)(=O)c3ccccc3)C2)C1`, the max dye-equivalent concentration was “inactive”.
With `CN(C)c1ccc(C(c2nnnn2C2CCCCC2)N2CCN(C(=O)c3ccco3)CC2)cc1` (configuration not stated) the max dye-equivalent concentration was “inactive”.
With `COCCn1c(=O)c(-c2cccc(C#N)c2)nc2cnc(Oc3cccc(Cl)c3)nc21` the max dye-equivalent concentration was inconclusive: 4.9 nM.
With `O=C1c2cccc3cccc(c23)C(=O)N1c1nncs1` the max dye-equivalent concentration was active: 230 nM.
With `Cn1c(=O)c2c(-c3ccccc3)n(-n3cnnc3)cc2n(C)c1=O` the max dye-equivalent concentration was inconclusive: 1.4 nM.
With `NC[C@H]1O[C@H](n2cnc3c(N)ncnc32)C[C@@H]1O` the max dye-equivalent concentration was “inactive”.
For `COc1ccccc1CNc1nc2nc(C)c(C)c(=O)n2[nH]1`, the max dye-equivalent concentration was inconclusive: 1.5 nM.
For `CC(=O)O[C@]12CC[N@+]3(C)CCCC[C@@H]3[C-]1Nc1ccccc12`, the max dye-equivalent concentration was “inactive”.
With `Cc1nc(N)[nH]c(=O)c1CCC(=O)OCC(C)C` the max dye-equivalent concentration was inconclusive: 1.1 nM.
In the case of `Cc1sc2ncnc(SCC#N)c2c1C`, the max dye-equivalent concentration was inconclusive: 1.1 nM.
With `O=c1c(=O)n(O)c2ccccc2n1O` the max dye-equivalent concentration was “inactive”.
With `Cc1ccc(-c2nn3c(C)nnc3s2)cc1NC(=O)c1ccc(-c2cccc(Cl)c2)o1` the max dye-equivalent concentration was active: 17 nM.
For `O=C(c1cccn2c(=O)c3ccccc3nc12)N1CCN(c2ccccn2)CC1`, the max dye-equivalent concentration was active: 57 nM.
For `COc1ccccc1CN1C(=O)C2CC=CCC2C1=O` (configuration not stated), the max dye-equivalent concentration was active: 290 nM.
For `O=C(Nc1ccccc1F)c1cc(S(=O)(=O)N2CCCCC2)cs1`, the max dye-equivalent concentration was “inactive”.
For `Cc1cccc(C)c1N(CC(=O)N1CCN(C)CC1)S(C)(=O)=O`, the max dye-equivalent concentration was “inactive”.
In the case of `CCc1nnc(NC(=O)CSc2nnc(-c3ccoc3C)n2CC(C)C)s1`, the max dye-equivalent concentration was inconclusive: 5 nM.
In the case of `CCC(C)(C)n1nnnc1C(c1ccccn1)N1CCOCC1` (configuration not stated), the max dye-equivalent concentration was inconclusive: 7.7 nM.
With `N#Cc1c(Nc2ccccc2)c(C=NCCN2CCOCC2)c[nH]c1=O` the max dye-equivalent concentration was inconclusive: 1.8 nM.
With `CN=c1scc(C)n1/N=C/c1ccc2c(c1)OCO2` the max dye-equivalent concentration was inconclusive: 3.6 nM.
For `Cc1cc(C)c2nc(SCCC#N)nc(C)c2c1`, the max dye-equivalent concentration was inconclusive: 1.7 nM.
For `COc1cc2c(cc1OC)CN(c1ccc(-c3ccccc3OC)nn1)CC2`, the max dye-equivalent concentration was inconclusive: 1.5 nM.
With `CC[C@@H](C)[C@H](NC(=O)C1CCN(C(=O)[C@@H](NS(=O)(=O)c2ccc(C)cc2)C(C)C)CC1)C(=O)O` the max dye-equivalent concentration was inconclusive: 1.7 nM.
In the case of `CC1(C)NC(=O)N(c2ccc([N+](=O)[O-])c(C(F)(F)F)c2)C1=O`, the max dye-equivalent concentration was inconclusive: 3.6 nM.
For `Clc1ccc(Cl)c(-c2ccc(/C=N/c3ncn[nH]3)o2)c1`, the max dye-equivalent concentration was inconclusive: 1.5 nM.
In the case of `c1ccc2c(c1)OCC(c1nnc3sc(-c4ccc5c(c4)OCO5)nn13)O2` (configuration not stated), the max dye-equivalent concentration was active: 160 nM.
For `CCOC(=O)N1CCN(Cc2nc3c(c(=O)n(C)c(=O)n3C)n2CCCc2ccccc2)CC1`, the max dye-equivalent concentration was inconclusive: 7.3 nM.
For `CCN1CCN(Cc2c(C)[nH]c3ccc(C(=O)OC)cc3c2=O)CC1`, the max dye-equivalent concentration was inconclusive: 2.1 nM.
With `CCN(CC)CCCN1C(=O)C(O)=C(C(=O)c2cc3ccccc3o2)C1c1ccccn1` (configuration not stated) the max dye-equivalent concentration was inconclusive: 1.1 nM.
For `C=CCn1c(SCc2csc(C)n2)nc2scc(-c3ccc(C)o3)c2c1=O`, the max dye-equivalent concentration was inconclusive: 7.2 nM.
In the case of `CCOc1ccccc1N1CCN(c2nc(N)c(C#N)c(CC#N)c2C#N)CC1`, the max dye-equivalent concentration was inconclusive: 2.5 nM.
In the case of `Cc1ccc(S(=O)(=O)Oc2cc(S(=O)(=O)O)cc3cc(S(=O)(=O)O)cc(N)c23)cc1`, the max dye-equivalent concentration was inconclusive: 2.6 nM.
In the case of `CC1(C)C(=O)Nc2ccccc2N1C(=O)COC(=O)C12CC3CC(CC(O)(C3)C1)C2`, the max dye-equivalent concentration was inconclusive: 4 nM.
In the case of `CCOC(=O)N1CCN(CC(=O)n2c(C)c(C)c3ccccc32)CC1`, the max dye-equivalent concentration was “inactive”.
With `Cc1ccc(C(=O)OC2CCOC2=O)cc1NC(=O)c1ccco1` (configuration not stated) the max dye-equivalent concentration was inconclusive: 1.2 nM.
With `COc1cccc(C2CC(=O)NC3=C2C(=O)CCC3)c1` (configuration not stated) the max dye-equivalent concentration was inconclusive: 9.5 nM.
In the case of `CN(C(=O)COc1nnc(-c2cccs2)c(-c2cccs2)n1)c1ccccc1`, the max dye-equivalent concentration was “inactive”.
For `Cn1c(N)c(C(=O)COC(=O)C2(c3ccc(F)cc3)CCCC2)c(=O)n(C)c1=O`, the max dye-equivalent concentration was inconclusive: 1.5 nM.
With `CC(=O)c1cccc(NC(=O)c2ccc(N(C)S(C)(=O)=O)cc2)c1` the max dye-equivalent concentration was inconclusive: 1.1 nM.
With `CC(c1ccccc1F)n1cc(C(=O)NCc2ccncc2)nn1` (configuration not stated) the max dye-equivalent concentration was inconclusive: 1.1 nM.
